Measurements: publication PMC3917433
Results are given in words; binding and its absence hold for the method and conditions named. In cells and extracts the contact can be indirect. Some results given as binding are weak or reduced against the parent protein; the word gives no strength.

Amino acid sequences for entries named in this document (tags omitted).
UniProt P13202: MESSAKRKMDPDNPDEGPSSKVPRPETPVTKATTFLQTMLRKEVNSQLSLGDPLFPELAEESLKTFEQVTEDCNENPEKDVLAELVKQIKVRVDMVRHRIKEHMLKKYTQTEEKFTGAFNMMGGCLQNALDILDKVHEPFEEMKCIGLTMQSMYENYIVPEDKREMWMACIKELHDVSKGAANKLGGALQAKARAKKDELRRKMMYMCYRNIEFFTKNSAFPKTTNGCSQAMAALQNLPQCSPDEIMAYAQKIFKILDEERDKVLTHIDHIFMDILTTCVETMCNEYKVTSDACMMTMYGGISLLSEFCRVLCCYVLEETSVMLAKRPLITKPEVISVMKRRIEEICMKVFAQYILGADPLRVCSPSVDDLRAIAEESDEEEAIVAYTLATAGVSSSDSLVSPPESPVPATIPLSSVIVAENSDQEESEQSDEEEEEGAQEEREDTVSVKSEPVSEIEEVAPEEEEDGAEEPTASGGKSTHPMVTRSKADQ

B1: HDAC10 (protein, UniProt Q969S8 1-669)
chain: MGTALVYHEDMTATRLLWDDPECEIERPERLTAALDRLRQRGLEQRCLRLSAREASEEELGLVHSPEYVSLVRETQVLGKEELQALSGQFDAIYFHPSTFHCARLAAGAGLQLVDAVLTGAVQNGLALVRPPGHHGQRAAANGFCVFNNVAIAAAHAKQKHGLHRILVVDWDVHHGQGIQYLFEDDPSVLYFSWHRYEHGRFWPFLRESDADAVGRGQGLGFTVNLPWNQVGMGNADYVAAFLHLLLPLAFEFDPELVLVSAGFDSAIGDPEGQMQATPECFAHLTQLLQVLAGGRVCAVLEGGYHLESLAESVCMTVQTLLGDPAPPLSGPMAPCQSALESIQSARAAQAPHWKSLQQQDVTAVPMSPSSHSPEGRPPPLLPGGPVCKAAASAPSSLLDQPCLCPAPSVRTAVALTTPDITLVLPPDVIQQEASALREETEAWARPHESLAREEALTALGKLLYLLDGMLDGQVNSGIAATPASAAAATLDVAVRRGLSHGAQRLLCVALGQLDRPPDLAHDGRSLWLNIRGKEAAALSMFHVSTPLPVMTGGFLSCILGLVLPLAYGFQPDLVLVALGPGHGLQGPHAALLAAMLRGLAGGRVLALLEENSTPQLAGILARVLNGEAPPSLGPSSVASPEDVQALMYLRGQLEPQWKMLQCHPHLVA
B2: SC35 (protein, UniProt Q01130 1-221)
chain: MSYGRPPPDVEGMTSLKVDNLTYRTSPDTLRRVFEKYGRVGDVYIPRDRYTKESRGFAFVRFHDKRDAEDAMDAMDGAVLDGRELRVQMARYGRPPDSHHSRRGPPPRRYGGGGYGRRSRSPRRRRRSRSRSRSRSRSRSRSRYSRSKSRSRTRSRSRSTSKSRSARRSKSKSSSVSRSRSRSRSRSRSRSPPPVSKRESKSRSRSKSPPKSPEEEGAVSS
B3: TRIM33 (protein, UniProt Q9UPN9 1-1127)
chain: MAENKGGGEAESGGGGSGSAPVTAGAAGPAAQEAEPPLTAVLVEEEEEEGGRAGAEGGAAGPDDGGVAAASSGSAQAASSPAASVGTGVAGGAVSTPAPAPASAPAPGPSAGPPPGPPASLLDTCAVCQQSLQSRREAEPKLLPCLHSFCLRCLPEPERQLSVPIPGGSNGDIQQVGVIRCPVCRQECRQIDLVDNYFVKDTSEAPSSSDEKSEQVCTSCEDNASAVGFCVECGEWLCKTCIEAHQRVKFTKDHLIRKKEDVSESVGASGQRPVFCPVHKQEQLKLFCETCDRLTCRDCQLLEHKEHRYQFLEEAFQNQKGAIENLLAKLLEKKNYVHFAATQVQNRIKEVNETNKRVEQEIKVAIFTLINEINKKGKSLLQQLENVTKERQMKLLQQQNDITGLSRQVKHVMNFTNWAIASGSSTALLYSKRLITFQLRHILKARCDPVPAANGAIRFHCDPTFWAKNVVNLGNLVIESKPAPGYTPNVVVGQVPPGTNHISKTPGQINLAQLRLQHMQQQVYAQKHQQLQQMRMQQPPAPVPTTTTTTQQHPRQAAPQMLQQQPPRLISVQTMQRGNMNCGAFQAHQMRLAQNAARIPGIPRHSGPQYSMMQPHLQRQHSNPGHAGPFPVVSVHNTTINPTSPTTATMANANRGPTSPSVTAIELIPSVTNPENLPSLPDIPPIQLEDAGSSSLDNLLSRYISGSHLPPQPTSTMNPSPGPSALSPGSSGLSNSHTPVRPPSTSSTGSRGSCGSSGRTAEKTSLSFKSDQVKVKQEPGTEDEICSFSGGVKQEKTEDGRRSACMLSSPESSLTPPLSTNLHLESELDALASLENHVKIEPADMNESCKQSGLSSLVNGKSPIRSLMHRSARIGGDGNNKDDDPNEDWCAVCQNGGDLLCCEKCPKVFHLTCHVPTLLSFPSGDWICTFCRDIGKPEVEYDCDNLQHSKKGKTAQGLSPVDQRKCERLLLYLYCHELSIEFQEPVPASIPNYYKIIKKPMDLSTVKKKLQKKHSQHYQIPDDFVADVRLIFKNCERFNEMMKVVQVYADTQEINLKADSEVAQAGKAVALYFEDKLTEIYSDRTFAPLPEFEQEEDDGEVTEDSDEDFIQPRRKRLKSDERPVHIK

What follows are binders tested against Human cytomegalovirus immediate-early protein 1 (human cytomegalovirus (HCMV)) (UniProt P13202) (assay: co-IP).
B1 was tested, and the binding was “binds”. With B2 the binding was “binds”. With B3 the binding was “binds”.
